The structures appear in SMILES notation. The list shows a part of the results. The main result of the screen is listed elsewhere. These columns were measured beside it and carry no call. Compounds called inactive in the main read-out are mostly missing here. The note in brackets gives the kind of curve behind each potency; many fits are weak.

This assay is described as follows: qHTS Assay for Lipid Storage Modulators in Drosophila S3 Cells.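 For cell number change: cells counted by Cell Tracker Red CMTPX staining in the red channel.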 The conditions noted are these: BODIPY lipid droplet fluorescence, 18-24 h; for cell number change: measured here: cell count max response, cells fed with added oleic acid. In a few lines:
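Laser-scanning cytometry quantifies lipid droplet accumulation (500–530 nm total intensity; droplet/cell object ratio) in oleic acid-fed (400 uM added) Drosophila S3 cells treated with a concentration series. 20 uM Triacsin C defined 100% inhibition.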
Background: qHTS replaces the single test concentration by a dilution series.

Setting [1] is: measured here: cell number channel AC50, cells fed with added oleic acid.
Setting [2] is: measured here: lipid fluorescence (Fed channel) AC50, cells fed with added oleic acid.

Take `CCN(Cc1ccccc1)C(=O)c1oc2ccc(S(=O)(=O)N3CCOCC3)cc2c1C`: the cell number change is -31.5%. The AC50 – broadly, the concentration at which the activity in the assay is half-maximal – under setting [1] is 13 µM [falling, partial curve, poor fit]. Besides, under setting [2], the AC50 is 2.31 µM [falling, partial curve].

For `COc1ccc(CCn2nnnc2C(CC(C)C)N2CCC(C(N)=O)CC2)cc1OC` (stereo unspecified), the cell number change is -12.9%.

With `O=C(OCc1ccccc1Cl)c1cccnc1Cl`, the cell number change worked out at 20.1%. For the same molecule, the AC50 under setting [2] is 0.731 µM [falling, single point].

For `Clc1ccc2nc(-c3ccc(Cl)nc3)[nH]c2c1`, the cell number change was -45.7%. Besides, the AC50 under setting [1] was 29.1 µM [falling, single point]. The AC50 under setting [2] is 18.4 µM [falling, single point].

Take `O=C(Nc1ccccc1O)C(c1ccccc1)c1ccccc1`: the cell number change is -52.2%. Besides, the AC50 under setting [1] was 29.1 µM [falling, single point]. Further, the AC50 under setting [2] is 16.4 µM [falling, single point].

Regarding `COc1ccc(OC)c(NC(=O)NC2CCCCCCC2)c1`, the cell number change is -2.6%. Besides, the AC50 under setting [2] is 2.31 µM [rising, full curve].

For `O=C(OCC(=O)N1c2ccccc2Sc2ccccc21)c1ccc[n+]([O-])c1`, the cell number change was -21.4%. For the same molecule, under setting [1], the AC50 was 0.00461 µM [falling, full curve, poor fit].

In the case of `COc1ccc(Oc2cc(C)c3ccccc3n2)cc1`, the cell number change is -41.1%. Under setting [2], the AC50 was 5.8 µM [rising, partial curve].

On to `COc1ccc(CCC2(C)NC(=O)NC2=O)cc1` (stereo unspecified), for which the cell number change is -2.58%. In addition, under setting [2], the AC50 is 0.517 µM [falling, single point].

For `O=C(c1cccc(Cl)c1)N1CCN(S(=O)(=O)c2ccc(Cl)s2)CC1`, the cell number change is -1.74%. Further, the AC50 under setting [2] was 0.0103 µM [rising, full curve, poor fit].

`O=C(Nc1c(C(=O)Nc2cccc3ccccc23)cnn1-c1ccccc1)c1ccco1`: the AC50 under setting [2] is 14.6 µM [falling, single point].

Turning to `Cc1cc(-c2n[nH]c(=S)n2/N=C/c2cccs2)n[nH]1`, the cell number change stood at 15.5%. In addition, the AC50 under setting [2] was 0.0517 µM [rising, full curve, poor fit].

For the molecule `CC1CCN(S(=O)(=O)c2ccc(NC(=O)[C@@H]3CCCC[C@@H]3C(=O)O)cc2)CC1`, the cell number change amounted to 1.28%.

For `CC(C)C(C)(C#N)NC(=O)CSc1nnc(-c2ccccc2)o1` (stereo unspecified), the cell number change amounted to 25.5%. For the same molecule, the AC50 under setting [2] is 0.00411 µM [rising, full curve, poor fit].

On to `Cc1ccnc(NC(=O)Nc2ccc3c(c2)N(C)C(=O)CS3)c1`, for which the cell number change is -0.11%. Under setting [2], the AC50 is 0.58 µM [rising, single point].

As for `Cn1c(=O)c2c(nc(Sc3ncccn3)n2Cc2ccccc2Cl)n(C)c1=O`, the cell number change was -42.1%. In addition, the AC50 under setting [2] is 29.1 µM [falling, single point].

Turning to `O=C(c1ccco1)N1CCC(c2nc(-c3ccccc3Cl)no2)CC1`, the cell number change was -1.65%.

Regarding `COc1ccc(Br)c(C(=O)N2CCN(S(=O)(=O)/C=C/c3ccccc3)CC2)c1`, the cell number change worked out at 13.8%.

For `CC(C)CN(CC(C)C)C(=O)c1cccc(S(=O)(=O)N2CCc3ccccc32)c1`, the AC50 under setting [2] was 29.1 µM [rising, single point].

Consider `CN1C(=O)c2ccc(NC(=O)c3c(C(=O)O)cccc3[N+](=O)[O-])cc2C1=O`, for which the cell number change was found to be 4.96%.

Turning to `CN(C)c1ccc(-c2nnn(CC(=O)Nc3ccccc3N3CCOCC3)n2)cc1`, the cell number change was determined as 19.3%. In addition, under setting [1], the AC50 was 0.517 µM [rising, full curve, poor fit]. Further, the AC50 under setting [2] is 3.66 µM [rising, full curve, poor fit].

As for `CCOC(=O)NC(C(Cl)(Cl)Cl)S(=O)(=O)c1ccccc1` (stereo unspecified), the cell number change was -6.55%. Besides, the AC50 under setting [2] is 1.3 µM [rising, partial curve].

`Cc1ccc(/C=N/Nc2ccc3ccccc3n2)o1`: the cell number change was -74.2%. Besides, the AC50 under setting [1] is 7.31 µM [falling, partial curve].

Consider `O=C(NCCCN1CCOCC1)NC1CCCCC1`, for which the cell number change is -6.36%. The AC50 under setting [2] was 1.03 µM [falling, full curve].

For the molecule `COc1ccc(/C=N/NC(=O)CNC(=O)c2ccc(S(=O)(=O)N3CCOCC3)cc2)c(OC)c1`, the cell number change amounted to 11%.

With `Cc1cc(C)c(C)c(N=Nc2nc3ccccc3n2C)c1C`, the cell number change was -50.8%. For the same molecule, the AC50 under setting [1] is 29.1 µM [falling, single point]. In addition, the AC50 under setting [2] was 29.1 µM [falling, single point].

For `COc1ccc(C(=O)ON=C2c3ccccc3-c3ccccc32)cc1OC`, the cell number change turned out to be 49.9%. Moreover, the AC50 under setting [1] was 6.51 µM [rising, single point]. Also, under setting [2], the AC50 was 3.66 µM [rising, partial curve].

Turning to `Cc1ccc(C(=O)NCCSC(C)(C)C)cc1`, the cell number change is 10.6%. Further, the AC50 under setting [2] is 18.4 µM [rising, single point].

Consider `O=C(Nc1cccc(C(F)(F)F)c1)C1CCN(S(=O)(=O)c2cccnc2)CC1`, for which the cell number change is -0.382%.

As for `COc1ccc(-c2cc(=O)oc3cc(OCC(=O)N(C)C4CCS(=O)(=O)C4)ccc23)cc1` (stereo unspecified), the cell number change amounted to 27.1%. In addition, the AC50 under setting [2] was 1.03 µM [rising, full curve].

With `COCC(C)NC(=O)c1ccccc1[N+](=O)[O-]` (stereo unspecified), the cell number change worked out at 9.89%. Moreover, the AC50 under setting [1] was 1.46 µM [rising, partial curve]. For the same molecule, under setting [2], the AC50 was 0.731 µM [falling, full curve].

`O=C(CN1C(=O)NC(Cc2c[nH]c3ccccc23)C1=O)Nc1cccc(S(=O)(=O)N2CCCC2)c1` (stereo unspecified): the cell number change was -35.5%. Besides, the AC50 under setting [2] is 0.112 µM [falling, full curve].

On to `CN(C)c1nc(N)nc(-c2ccco2)n1`, for which the cell number change was 10.6%. Also, the AC50 under setting [2] was 6.51 µM [falling, single point].

With `COc1ccc2sc(-c3ccccc3OC)c(-c3ccc(OC)nc3)c2c1`, the cell number change was -36.7%. Besides, under setting [1], the AC50 was 29.1 µM [falling, single point]. The AC50 under setting [2] was 29.1 µM [rising, single point].

With `Clc1ccc2nc(CN3CCCc4ccccc43)cn2c1`, the cell number change was 109%. Further, under setting [1], the AC50 is 14.6 µM [rising, partial curve]. In addition, the AC50 under setting [2] is 16.4 µM [rising, partial curve].

On to `CCOC(=O)C1=C(C)NC(=O)NC1c1ccccc1Cl` (stereo unspecified), for which the cell number change is 11.3%. The AC50 under setting [2] was 13 µM [rising, single point].

Consider `CSc1ccc(CNC(=O)C(C)n2nc(C)c3c(C)n(-c4ccccc4)nc3c2=O)cc1` (stereo unspecified), for which the cell number change was -5.31%. In addition, the AC50 under setting [2] is 0.58 µM [rising, single point].

`CN(C)S(=O)(=O)c1ccc(N2CCCC2)c(C(=O)NCC2CCCCC2)c1`: the cell number change was -33.4%. Further, the AC50 under setting [1] was 0.058 µM [falling, full curve]. In addition, under setting [2], the AC50 was 16.4 µM [falling, partial curve, poor fit].

On to `O=C(NCc1ccco1)c1ccc(Br)c(S(=O)(=O)N2CCCCC2)c1`, for which the cell number change was -12.4%.

For the molecule `Cc1ccc(S(=O)(=O)Cc2ccc(C(=O)NCCc3ccccc3)o2)cc1`, the cell number change amounted to 24.8%.

On to `Cc1ccc2nc(CSc3nnc(-c4ccncc4)n3C)cc(=O)n2c1`, for which the cell number change is -4.52%. In addition, the AC50 under setting [2] is 29.1 µM [falling, single point].

Regarding `CCC(C(=O)NCCC(C)C)N(Cc1ccccc1Cl)C(=O)c1snc(C(N)=O)c1N` (stereo unspecified), the cell number change is -56.7%. Besides, under setting [1], the AC50 was 8.2 µM [falling, partial curve, poor fit]. The AC50 under setting [2] is 29.1 µM [falling, single point].

In the case of `Cc1cc(OCC(O)CNC(C)c2ccccc2)ccc1C(C)C` (stereo unspecified), the cell number change was -49.3%.

Turning to `O=C(Nc1cc([N+](=O)[O-])ccc1O)c1cccc(C(=O)Nc2cc([N+](=O)[O-])ccc2O)c1`, the cell number change came out at 28.1%.

Turning to `O=C(CSc1nccc(=O)[nH]1)c1c[nH]c2ccccc12`, the cell number change was 17.3%. Also, the AC50 under setting [2] was 9.2 µM [rising, partial curve].

As to `Nc1c(C(=O)NCc2ccccc2)c2nc3ccccc3nc2n1CCCN1CCOCC1`, the cell number change is -46.6%. For the same molecule, under setting [1], the AC50 is 20.6 µM [falling, partial curve, poor fit]. In addition, the AC50 under setting [2] is 0.731 µM [rising, partial curve].

As for `CCC1(c2ccccc2)NC(=O)N(CC(=O)N(C)CC(=O)Nc2ccc(F)c(F)c2F)C1=O` (stereo unspecified), the cell number change was -27%. Also, under setting [1], the AC50 is 4.61 µM [falling, full curve, poor fit]. Besides, under setting [2], the AC50 was 4.61 µM [falling, full curve, poor fit].

With `C=CCc1c(C)[nH]c(=S)c(C#N)c1C`, the cell number change was 37.4%. In addition, the AC50 under setting [1] was 0.731 µM [rising, full curve, poor fit]. For the same molecule, the AC50 under setting [2] was 8.2 µM [rising, partial curve].

On to `Cc1ccc2c(CN3CCC(C)CC3)cc(=O)oc2c1C`, for which the cell number change was -42.3%. Also, the AC50 under setting [1] is 25.9 µM [falling, single point].

Turning to `Cc1c(C(=O)Nc2ccccc2)sc2nc(-c3ccccc3)cn12`, the cell number change is -65.7%. Also, the AC50 under setting [1] is 29.1 µM [falling, single point].

Regarding `COc1ccc(CNC(=O)COC(=O)CCc2nc3ccccc3c(=O)[nH]2)cc1`, the cell number change was found to be 39.9%.

Take `O=C1CCCCC1Oc1ccc2ccc(=O)oc2c1` (stereo unspecified): the cell number change worked out at 14.8%. Also, under setting [2], the AC50 was 5.8 µM [falling, single point].

On to `Cc1ccc(S(=O)(=O)N2CCOCC2)cc1NC(=O)CSc1ncccn1`, for which the cell number change is 23.7%. For the same molecule, the AC50 under setting [2] was 0.411 µM [rising, single point].

For `Cc1ccc(S(=O)(=O)N2CCC(C(=O)OC3CCOC3=O)CC2)cc1C` (stereo unspecified), the cell number change was determined as 256%. Also, the AC50 under setting [1] is 29.1 µM [rising, single point]. Also, the AC50 under setting [2] is 18.4 µM [rising, single point].

On to `CCOC(=O)c1cc2c(nc1N)CC(C)(CC)OC2` (stereo unspecified), for which the cell number change was determined as 38.7%. The AC50 under setting [1] was 16.4 µM [rising, single point].

`O=C(Nc1cccc([N+](=O)[O-])c1)c1ccc(CN2CCOCC2)cc1`: the AC50 under setting [1] was 0.164 µM [rising, full curve, poor fit] and the AC50 under setting [2] was 6.51 µM [rising, single point].

With `N#Cc1c(N)sc(=S)c2c1CCCC2`, the cell number change was 6.56%.

With `CC1CCC(NC(=O)C2CCC(CNS(=O)(=O)c3cccc4cccnc34)CC2)CC1` (stereo unspecified), the AC50 under setting [2] was 6.51 µM [falling, single point].

For `Cc1ccc(OCCn2cnc3c2c(=O)n(C)c(=O)n3C)cc1`, the cell number change came out at 18%.

`C/C(=N\NC(N)=S)C12CC3CC(CC(C3)C1)C2`: the cell number change is -22.5%. Also, the AC50 under setting [2] was 3.26 µM [falling, full curve].

As to `O=S(=O)(Nc1cc(Cl)ccn1)c1ccc(Cl)cc1`, the cell number change was -24.1%. In addition, the AC50 under setting [1] is 0.731 µM [falling, full curve]. Moreover, the AC50 under setting [2] is 0.231 µM [falling, full curve].

(Values after PubChem BioAssay AID2685 (National Center for Advancing Translational Sciences (NCATS), 2010).)
